Data taken from the supplement of paper PMC12819154, “High-throughput peptide-centric local stability assay extends protein–ligand identification to membrane proteins, tissues and bacteria” (Nature Structural & Molecular Biology, 2025).
The list shows a part of the results. Most entries show no effect beyond the scatter of the controls.

Chains of the proteins cited; added tags and fusions are not shown. Lines headed by an entry give the natural chain unless they say otherwise; changes in a name come on top.
UniProt O54774: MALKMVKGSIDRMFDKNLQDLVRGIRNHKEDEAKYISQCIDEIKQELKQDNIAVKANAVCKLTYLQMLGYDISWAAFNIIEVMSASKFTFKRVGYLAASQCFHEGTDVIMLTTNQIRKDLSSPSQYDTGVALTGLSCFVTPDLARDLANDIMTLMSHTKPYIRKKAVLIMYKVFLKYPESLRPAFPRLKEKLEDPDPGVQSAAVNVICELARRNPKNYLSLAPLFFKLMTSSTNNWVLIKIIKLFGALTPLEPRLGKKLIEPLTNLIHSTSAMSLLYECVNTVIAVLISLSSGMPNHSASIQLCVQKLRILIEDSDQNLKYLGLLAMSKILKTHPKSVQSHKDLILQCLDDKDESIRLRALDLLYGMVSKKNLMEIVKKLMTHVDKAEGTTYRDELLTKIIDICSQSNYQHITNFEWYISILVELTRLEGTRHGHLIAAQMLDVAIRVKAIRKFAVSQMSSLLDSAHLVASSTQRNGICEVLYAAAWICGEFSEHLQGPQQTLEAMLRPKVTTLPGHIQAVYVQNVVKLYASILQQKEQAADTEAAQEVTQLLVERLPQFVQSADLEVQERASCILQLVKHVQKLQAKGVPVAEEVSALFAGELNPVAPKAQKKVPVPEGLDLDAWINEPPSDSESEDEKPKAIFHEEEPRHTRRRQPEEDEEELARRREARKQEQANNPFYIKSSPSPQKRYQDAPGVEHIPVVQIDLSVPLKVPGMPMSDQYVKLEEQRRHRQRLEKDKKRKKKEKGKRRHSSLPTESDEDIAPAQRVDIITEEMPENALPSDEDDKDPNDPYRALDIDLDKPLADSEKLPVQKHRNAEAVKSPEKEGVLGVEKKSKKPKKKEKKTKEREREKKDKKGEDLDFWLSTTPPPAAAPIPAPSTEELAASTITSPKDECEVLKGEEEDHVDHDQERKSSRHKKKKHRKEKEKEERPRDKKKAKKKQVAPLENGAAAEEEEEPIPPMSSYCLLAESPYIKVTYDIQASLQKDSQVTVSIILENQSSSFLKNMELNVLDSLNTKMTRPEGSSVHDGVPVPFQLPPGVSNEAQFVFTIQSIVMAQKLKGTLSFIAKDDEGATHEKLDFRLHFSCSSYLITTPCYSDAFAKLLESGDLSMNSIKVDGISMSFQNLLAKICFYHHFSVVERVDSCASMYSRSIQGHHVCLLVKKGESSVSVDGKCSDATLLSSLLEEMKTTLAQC
UniProt O88572: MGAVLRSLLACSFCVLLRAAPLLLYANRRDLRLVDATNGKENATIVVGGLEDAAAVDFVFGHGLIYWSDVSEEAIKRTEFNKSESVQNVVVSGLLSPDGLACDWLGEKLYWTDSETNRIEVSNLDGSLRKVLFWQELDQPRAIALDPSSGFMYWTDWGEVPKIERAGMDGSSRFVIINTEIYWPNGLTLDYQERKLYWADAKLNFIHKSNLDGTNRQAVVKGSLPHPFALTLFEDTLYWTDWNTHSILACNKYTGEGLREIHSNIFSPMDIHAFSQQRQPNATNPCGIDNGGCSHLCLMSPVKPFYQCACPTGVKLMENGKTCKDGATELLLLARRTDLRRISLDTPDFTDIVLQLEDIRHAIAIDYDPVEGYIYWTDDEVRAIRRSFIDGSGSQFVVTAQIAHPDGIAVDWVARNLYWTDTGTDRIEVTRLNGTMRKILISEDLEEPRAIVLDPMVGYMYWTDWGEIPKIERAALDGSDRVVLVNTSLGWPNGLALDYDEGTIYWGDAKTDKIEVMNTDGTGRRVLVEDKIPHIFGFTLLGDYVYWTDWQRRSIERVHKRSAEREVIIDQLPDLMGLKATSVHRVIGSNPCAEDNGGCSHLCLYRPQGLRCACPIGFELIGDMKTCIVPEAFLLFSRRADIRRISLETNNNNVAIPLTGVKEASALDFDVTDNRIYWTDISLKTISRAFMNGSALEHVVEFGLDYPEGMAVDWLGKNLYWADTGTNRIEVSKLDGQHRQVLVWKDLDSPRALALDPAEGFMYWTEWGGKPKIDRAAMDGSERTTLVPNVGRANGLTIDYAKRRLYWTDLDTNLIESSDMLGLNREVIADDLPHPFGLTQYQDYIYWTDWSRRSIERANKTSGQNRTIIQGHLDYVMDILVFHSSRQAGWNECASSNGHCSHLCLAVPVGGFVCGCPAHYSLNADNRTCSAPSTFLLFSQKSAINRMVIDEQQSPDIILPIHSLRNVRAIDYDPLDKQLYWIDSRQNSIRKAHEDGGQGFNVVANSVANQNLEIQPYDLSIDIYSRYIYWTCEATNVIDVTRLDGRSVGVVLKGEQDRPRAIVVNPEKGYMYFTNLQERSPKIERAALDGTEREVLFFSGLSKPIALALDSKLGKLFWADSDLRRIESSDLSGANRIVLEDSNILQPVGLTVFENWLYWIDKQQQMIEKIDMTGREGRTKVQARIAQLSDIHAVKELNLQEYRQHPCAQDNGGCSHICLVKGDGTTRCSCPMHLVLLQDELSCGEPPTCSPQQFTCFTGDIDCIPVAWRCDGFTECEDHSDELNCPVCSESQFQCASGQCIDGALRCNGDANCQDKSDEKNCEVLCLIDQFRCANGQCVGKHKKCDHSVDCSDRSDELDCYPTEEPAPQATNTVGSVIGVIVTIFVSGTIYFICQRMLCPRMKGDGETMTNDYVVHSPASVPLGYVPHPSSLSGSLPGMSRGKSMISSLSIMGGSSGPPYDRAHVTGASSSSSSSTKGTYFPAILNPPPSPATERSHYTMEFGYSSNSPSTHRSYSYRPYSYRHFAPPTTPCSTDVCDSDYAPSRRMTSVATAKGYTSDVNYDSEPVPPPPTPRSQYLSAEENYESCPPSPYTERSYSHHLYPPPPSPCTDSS
UniProt O70480: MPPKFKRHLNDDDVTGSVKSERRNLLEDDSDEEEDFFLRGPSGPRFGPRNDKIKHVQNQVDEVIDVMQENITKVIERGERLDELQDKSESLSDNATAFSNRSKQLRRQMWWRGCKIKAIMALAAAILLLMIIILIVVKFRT
UniProt O70303: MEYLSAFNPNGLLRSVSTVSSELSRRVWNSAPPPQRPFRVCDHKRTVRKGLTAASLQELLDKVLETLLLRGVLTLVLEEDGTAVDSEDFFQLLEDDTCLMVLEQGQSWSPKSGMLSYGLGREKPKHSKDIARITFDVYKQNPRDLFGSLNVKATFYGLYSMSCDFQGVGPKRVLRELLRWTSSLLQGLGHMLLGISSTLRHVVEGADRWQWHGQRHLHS
UniProt O55111: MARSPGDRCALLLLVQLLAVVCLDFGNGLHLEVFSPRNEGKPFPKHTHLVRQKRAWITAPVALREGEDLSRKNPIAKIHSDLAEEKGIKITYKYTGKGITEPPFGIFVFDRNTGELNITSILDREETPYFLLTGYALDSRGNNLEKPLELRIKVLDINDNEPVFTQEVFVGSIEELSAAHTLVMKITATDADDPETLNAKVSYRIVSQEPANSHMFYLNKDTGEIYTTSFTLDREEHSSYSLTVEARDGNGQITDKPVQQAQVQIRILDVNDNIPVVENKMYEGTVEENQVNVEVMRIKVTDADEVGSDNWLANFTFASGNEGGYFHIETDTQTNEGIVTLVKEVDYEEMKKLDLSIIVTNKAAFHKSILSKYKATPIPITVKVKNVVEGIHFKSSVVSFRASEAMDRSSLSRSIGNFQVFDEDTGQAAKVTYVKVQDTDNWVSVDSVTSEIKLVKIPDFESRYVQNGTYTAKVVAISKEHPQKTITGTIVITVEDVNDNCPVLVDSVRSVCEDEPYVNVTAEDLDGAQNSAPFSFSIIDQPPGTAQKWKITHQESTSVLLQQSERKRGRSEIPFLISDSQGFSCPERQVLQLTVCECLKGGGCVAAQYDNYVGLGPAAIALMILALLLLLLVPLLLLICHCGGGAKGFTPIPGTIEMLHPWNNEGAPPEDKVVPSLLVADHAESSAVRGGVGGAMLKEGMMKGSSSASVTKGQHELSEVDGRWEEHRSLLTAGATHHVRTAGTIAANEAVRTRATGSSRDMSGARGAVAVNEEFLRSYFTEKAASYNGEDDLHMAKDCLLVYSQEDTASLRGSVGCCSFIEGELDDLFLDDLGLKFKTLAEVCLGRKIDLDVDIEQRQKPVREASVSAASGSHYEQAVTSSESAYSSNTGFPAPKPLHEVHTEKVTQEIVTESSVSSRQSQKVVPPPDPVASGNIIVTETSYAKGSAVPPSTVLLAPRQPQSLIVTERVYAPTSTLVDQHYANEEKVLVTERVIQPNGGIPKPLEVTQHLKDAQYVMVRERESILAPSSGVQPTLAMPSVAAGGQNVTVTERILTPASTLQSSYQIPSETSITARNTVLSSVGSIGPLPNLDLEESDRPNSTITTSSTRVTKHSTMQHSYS
UniProt O70572: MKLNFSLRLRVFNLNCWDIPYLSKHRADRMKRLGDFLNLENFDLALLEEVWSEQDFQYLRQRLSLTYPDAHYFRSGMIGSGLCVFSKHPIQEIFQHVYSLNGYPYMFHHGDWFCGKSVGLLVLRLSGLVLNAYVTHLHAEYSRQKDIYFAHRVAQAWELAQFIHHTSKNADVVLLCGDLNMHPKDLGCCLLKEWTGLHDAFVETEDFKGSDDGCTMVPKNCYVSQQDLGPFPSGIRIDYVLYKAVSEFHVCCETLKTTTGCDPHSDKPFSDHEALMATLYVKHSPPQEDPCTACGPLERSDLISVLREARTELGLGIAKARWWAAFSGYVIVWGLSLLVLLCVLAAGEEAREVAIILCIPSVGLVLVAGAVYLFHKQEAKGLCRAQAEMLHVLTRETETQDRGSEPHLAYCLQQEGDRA
UniProt O35717: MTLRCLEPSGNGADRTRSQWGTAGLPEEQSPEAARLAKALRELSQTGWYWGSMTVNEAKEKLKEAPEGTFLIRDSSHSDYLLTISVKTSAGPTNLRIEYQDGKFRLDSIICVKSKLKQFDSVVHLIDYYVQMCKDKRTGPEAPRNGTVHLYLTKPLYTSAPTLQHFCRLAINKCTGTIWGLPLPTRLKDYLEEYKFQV
UniProt O55239: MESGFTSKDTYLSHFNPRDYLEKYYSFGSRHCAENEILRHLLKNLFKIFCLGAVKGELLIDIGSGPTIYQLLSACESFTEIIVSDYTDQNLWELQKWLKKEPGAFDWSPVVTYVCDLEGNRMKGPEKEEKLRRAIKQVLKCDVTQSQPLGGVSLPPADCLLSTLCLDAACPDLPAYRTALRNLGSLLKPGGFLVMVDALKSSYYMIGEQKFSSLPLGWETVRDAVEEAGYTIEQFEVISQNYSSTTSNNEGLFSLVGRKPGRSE

compound: CN[C@@H]1C[C@H]2O[C@@](C)([C@@H]1OC)n1c3ccccc3c3c4c(c5c6ccccc6n2c5c31)C(=O)NC4 [staurosporine]; experiment: log2 fold change of tryptic peptide abundance, ligand vs vehicle (limited proteolysis) (log2 ratio); higher = more trypsin-susceptible (destabilized); settings: ligand concentration: 20 uM; sample: mouse liver crude lysate; replicate design: treated separately

| Target | log2 fold change |
| --- | --- |
| UniProt O54774 (peptide sequence: SIQGHHVCLLVK, peptide start residue: 1156) | -0.736 |
| UniProt O88572 (peptide sequence: LYWADAK, peptide start residue: 4060) | -0.179 |
| UniProt O70480 (peptide sequence: HLNDDDVTGSVK, peptide start residue: 8) | 0.0713 |
| UniProt O70303 (peptide sequence: ITFDVYK, peptide start residue: 133) | -0.167 |
| UniProt O55111 (peptide sequence: GQHELSEVDGR, peptide start residue: 713) | -0.252 |
| UniProt O70572 (peptide sequence: GSDDGCTMVPK, peptide start residue: 209) | 0.46 |
| UniProt O35717 (peptide sequence: CLEPSGNGADR, peptide start residue: 5) | 0.57 |
| UniProt O55239 (peptide sequence: DTYLSHFNPR, peptide start residue: 9) | 0.18 |
